Values joined by “and” are separate entries in the source; they are usually repeats but may differ in a detail not shown here. Equal values may be shown once. Read-outs that look alike come from different tables or passages of the source. The name of at least one read-out is uncertain.
How the values were obtained:
[1] = tested on: mitochondrial membrane potential; type: cell-based, mouse
[2] = tested on: OXPHOS gene expression; type: cell-based, mouse
[3] = tested on: cellular dehydrogenase activity
[4] = tested on: C2C12 myotubes
[5] = tested on: reactive oxygen species; type: cell-based, mouse; conditions: for ROS Zscore: Table 5
[6] = Table 4, C2C12 myotubes, 48 h, composite Z-score
[7] = Table 4, C2C12 myotubes, 48 h, JC-1, composite Z-score
[8] = Table 5, C2C12 myotubes, 48 h, composite Z-score
[9] = C2C12 myotubes, 48 h, composite Z-score

Compound | MTT [3, 6] | ΔΨm [1, 7] | Viability [4, 6] | ROS [5, 6] | also measured
Clc1ccc(CSC(Cn2ccnc2)c2ccc(Cl)cc2Cl)cc1 (centres unmarked) [sulconazole] |  |  |  |  | ΔΨm (composite Z-score vs DMSO) [1]: 0.548 and 0.306; GE-HTS (composite Z-score vs DMSO) [2]: 0.114 and 0.111
NCCC[C@H](N)C(=O)O [ornithine alphaketoglutarate] |  |  |  |  | MTT [3]: −2.104; GE-HTS [2]: −0.715
N=C(N)NCCN1CCCCCCC1 [guanethidine] |  |  |  |  | GE-HTS (composite Z-score) [2]: 0.135 and 0.145
COc1cc([C@@H]2c3cc4c(cc3[C@H](O)[C@H]3COC(=O)[C@@H]23)OCO4)cc(OC)c1OC [picropodophyllotoxin, reference compound] | −2.402 | −0.349 | −0.107 | −1.202 | 
C=C(C)[C@H]1Cc2c(ccc3c(=O)c4c(oc23)COc2cc(OC)c(OC)cc2-4)O1 [dehydrorotenone, reference compound] | −1.046 | 0.884 | −0.381 | 0.804 | 
O=c1cc(-c2ccccc2)oc2cc(O)c(O)c(O)c12 [baicalein, reference compound] | −1.632 | −2.552 | −0.456 | 0.851 | 
CCn1cc(C(=O)O)c(=O)c2cc(F)c(N3CCN(C)CC3)cc21 [pefloxacine] |  |  |  |  | MTT [3]: −2.114; GE-HTS [2]: −0.326
catechin hydrate [reference compound] | −1.301 | −1.926 | 0.165 | 0.880 | MTT [3]: −1.301; ΔΨm [1]: −1.926; Viability [4]: 0.165; ROS [5]: 0.880
COc1ccc2c(c1)O[C@@H]1COc3cc(OC)c(OC)cc3[C@@H]1C2=O [mundoserone, reference compound] | −1.681 | 0.837 | −0.425 | −0.608 | 
CCCOc1ccc2nc(NC(=O)OC)[nH]c2c1 [oxibendazole, reference compound] | −3.046 | −0.975 | −1.899 | −1.178 | 
CC(=O)O[C@H]1C(=O)[C@@]2(C)[C@H]([C@H](OC(=O)c3ccccc3)[C@]3(O)C[C@H](OC(=O)[C@H](O)[C@@H](NC(=O)c4ccccc4)c4ccccc4)C(C)=C1C3(C)C)[C@]1(OC(C)=O)CO[C@@H]1C[C@@H]2O [paclitaxel, reference compound] |  |  |  |  | GEHTS_Zscore [2, 8]: 2.451; GEHTS_Zscore ([2]; Table 5, C2C12 myotubes, 48 h, composite Z-score, taxol): 2.118; ROS Zscore [5, 9]: −1.967; ROS Zscore ([5]; C2C12 myotubes, 48 h, composite Z-score, taxol): −2.010
O=C1C=C2CC3(O)COc4cc(O)ccc4C3=C2C=C1O (centres unmarked) [brazilein, reference compound] | −0.725 | −0.110 | −1.633 | 1.078 | 
COc1ccc(-c2c(O)c3c(OC)c4c(cc3oc2=O)OC(C)(C)C=C4)cc1 [robustic acid, reference compound] | −1.831 | −1.086 | −1.213 | −0.119 | 
COc1cc2c(c(OC)c1OC)-c1ccc(OC)c(=O)cc1[C@@H](NC(C)=O)CC2 [Colchicine, reference compound] |  |  |  |  | GEHTS_Zscore [2]: 1.215 and 0.901
Oc1ccc2c(c1)O[C@H](c1ccc(O)c(O)c1)[C@@H](O)C2 [fisetinidol, reference compound] | −1.804 | −1.528 | −1.412 | −0.215 | 
Oc1cc(O)c2c(c1)O[C@H](c1ccc(O)c(O)c1)[C@H](O)C2 [epicatechin, reference compound] |  |  |  |  | MTT [3]: −1.037; ΔΨm [1]: −1.966; Viability [4]: 0.077; ROS [5]: −0.231
Oc1cc(O)c2c(c1)O[C@H](c1ccc(O)c(O)c1)[C@@H](O)C2 [cianidanol, reference compound] | −1.471 | −1.746 | 0.630 | −0.371 | 
COc1cc2c(cc1OC)[C@@H]1C(=O)c3ccc4c(c3O[C@@H]1CO2)CC(C(C)C)O4 (some centres unmarked) [dihydrorotenone, reference compound] | −4.020 | −0.314 | 0.390 | −0.682 | 
COc1cc2c(cc1-c1coc3c4c(c(OC)cc3c1=O)OC(C)(C)C=C4)OCO2 [ichthynone, reference compound] | −0.681 | −0.325 | 0.234 | 1.842 | 
COc1c2c(cc3occ(-c4ccc5c(c4)OCO5)c(=O)c13)OC(C)(C)C=C2 [methyl robustone, reference compound] | −0.344 | 0.715 | 0.848 | −0.347 | 

Compound | MTT [3, 6] | ΔΨm [1, 7] | Viability [4, 6] | ROS [5, 6] | also measured
O=c1c(O)c(-c2ccc(O)cc2O)oc2cc(O)cc(O)c12 [morin, reference compound] | −0.293 | −2.534 | −0.962 | 0.880 | 
CCOC(=O)C1(O)Oc2cc(OC)cc(OC)c2C(=O)C1c1ccccc1 (centres unmarked) [2-ethoxycarbonyl-2-hydroxy-5,7-dimethoxyisoflavanone, reference compound] | −0.260 | 0.215 | 0.511 | 0.774 | 
COC(=O)Nc1nc2cc(C(=O)c3cccs3)ccc2[nH]1 [Nocodazole, methyl[5-(2-thienylcarbonyl)-1H-benzimidazol-2-yl]carbamate, reference compound] | −0.751 | 0.358 | −0.069 | −1.099 | 
CC[C@@H](C(=O)[C@@H](C)[C@@H](O)[C@H](C)[C@@H]1O[C@@H]([C@@H](CC)C(=O)O)CC[C@@H]1C)[C@H]1O[C@]2(C=C[C@@H](O)[C@]3(CC[C@@](C)([C@H]4CC[C@](O)(CC)[C@H](C)O4)O3)O2)[C@H](C)C[C@@H]1C [salinomycin, reference compound] | −2.918 | 2.976 | −0.247 | −3.111 | 
COC1=CC(=O)C[C@@H](C)[C@]12Oc1c(Cl)c(OC)cc(OC)c1C2=O [griseofulvin, reference compound] | −1.919 | 0.065 | 0.008 | −1.037 | 
CC(=O)[C@H]1CC[C@H]2[C@@H]3CC[C@H]4C[C@H](O)CC[C@]4(C)[C@H]3C(=O)C[C@]12C [alfaxalone] |  |  |  |  | MTT [3]: −0.849; GE-HTS [2]: 0.542
CCCSc1ccc2nc(NC(=O)OC)[nH]c2c1 [albendazole, reference compound] |  |  |  |  | MTT [3]: −1.894; ΔΨm [1]: −0.296; Viability [4]: −0.402; ROS [5]: −1.434
COC(=O)Nc1nc2ccc(C(=O)c3ccccc3)cc2[nH]1 [mebendazole, methyl[5-benzoyl-benzimidazol-2-carbamate], reference compound] |  |  |  |  | GEHTS_Zscore [2, 8]: 2.846; GEHTS_Zscore ([2]; Table 5, C2C12 myotubes, 48 h, composite Z-score, listed as Mebendazole): 0.623; ROS Zscore [5, 9]: −1.003; ROS Zscore ([5]; C2C12 myotubes, 48 h, composite Z-score, listed as Mebendazole): −0.791
O=C1c2ccc(O)c(O)c2C(=O)c2c(O)ccc(O)c21 [quinalizarin, reference compound] | −0.668 | −2.511 | 0.583 | 0.674 | 
O=C1c2ccccc2C(=O)c2c(O)c(O)cc(O)c21 [purpurin, reference compound] | −2.248 | −2.389 | −1.205 | 1.584 | 
COC1=C[C@@H](C)[C@@H]2C[C@H]3OC(=O)C[C@H]4C(C)=C(OC)C(=O)[C@H]([C@@]2(C)C1=O)[C@@]34C [quassin, reference compound] | −0.400 | 0.033 | −0.688 | 0.925 | 
COc1cc([C@@H]2c3cc4c(cc3[C@H](O)[C@H]3COC(=O)[C@H]23)OCO4)cc(OC)c1OC [podofilox, reference compound] |  |  |  |  | GEHTS_Zscore [2, 8]: 2.561 and 3.408
Oc1ccc2c(c1)OC[C@]1(O)Cc3cc(O)c(O)cc3[C@H]21 [brazilin, reference compound] | −1.218 | −0.602 | −1.426 | −1.481 | 
O=c1c(O)c(-c2ccc(O)cc2)oc2cc(O)cc(O)c12 [kaempferol, reference compound] | −0.352 | −2.485 | −0.013 | −1.322 | 
Oc1cc(O)c2c(c1)O[C@H](c1cc(O)c(O)c(O)c1)[C@H](O)C2 [epigallocatechin, reference compound] | −1.197 | −2.502 | −1.489 | −0.531 | 
CCCCc1ccc2[nH]c(NC(=O)OC)nc2c1 [parbendazole, reference compound] | −1.477 | 0.418 | 0.211 | −1.879 | 
C=C(C)[C@H]1Cc2c(ccc3c2O[C@@H]2COc4cc(OC)c(OC)cc4[C@@H]2C3=O)O1 [rotenone, reference compound] | −4.233 | −2.300 | −2.235 | −0.346 | 
CC(=O)O[C@@H]1c2c(ccc3ccc(=O)oc23)OC(C)(C)[C@@H]1OC(=O)CC(C)C [dihydrosamidin, reference compound] | −0.826 | 0.199 | 0.476 | 4.794 | 
COc1cc2c(cc1OC)[C@@H]1C(=O)c3ccc(O)c(CC=C(C)C)c3O[C@@H]1CO2 [rotenonic acid, reference compound] | −0.731 | 0.050 | 0.206 | 0.173 | 

From US20090143279A1 (priority 2007, published 2009)
